In the data set the test system is human plasma proteins. The note with it: for Recovery: mass balance after 24 hr of dialysis; for Plasma Concentration: measured following 24 h of dialysis.

Where two headings read alike, the source gives them in different places. Marks after values point to notes of the source that are not given here.

As to `CC(N)C1CCN(S(=O)(=O)c2cccc3cnccc23)CC1.Cl.Cl` (racemic) [BA-1049], the Recovery result is “essentially complete” and the “Plasma Concentration” value stood at 5575 ng/mL. Under “listed as BA-1049 (Racemate)”, this compound came in with a Recovery of 98.1%.
For the compound `CC(C)NC[C@H](O)COc1cccc2ccccc12` [[^3H]-Propranolol, L-(−)-[4-^3H]propranolol], the Recovery was 73.9%. The “Plasma Concentration” value (radiolabeled standards) is 72.8^b pM.

The values above are taken from patent US9687483B2, “Treatment of cerebral cavernous malformations and cerebral aneurysms with Rho kinase inhibitors” (priority 2015, dated 2017).
